PubChem BioAssay AID1224829 | NIAID – 2016
Shown is an unselected part of about 3,800 reagents tested. 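Calls cover raised and lowered translocation; gene median uses one vendor's three siRNAs; qiagen siRNAs acted more weakly than ambion siRNAs.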 Reagents against one gene are numbered here. No sequences are given here.

- Aim: 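Secondary check of hits that alter LPS-induced p65 translocation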 (follow-up of hits)
- Cell system: mouse RAW264.7 G9 macrophage reporter cells
- Reagents: single siRNA against mouse genes, 100 nM
- Duration: 2 days of siRNA knock-down, then 40 min of LPS before fixing
- Treatment: LPS (Salmonella minnesota R595) at 10 ng/ml
- Read-out: 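High-content images after 40 min LPS exposure; GFP-p65 nucleus to surrounding ring signal ratio, normalised to plate median and non-targeting control wells, expressed as z-score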
- Scale: p65 translocation z-score and gene median z-score, per vendor: higher = more nuclear NF-kappaB p65 after LPS
- Hit rule: 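Active means the replicate-mean z-score lies beyond plus or minus 2, in either direction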
- Meaning of the calls: active = changed p65 translocation (either direction); inactive = no clear change

target gene	reagent no.	siRNA vendor or control pool	p65 translocation z-score, replicate mean	p65 translocation z-score, replicate 1	p65 translocation z-score, replicate 2	gene median z-score, per vendor	Call
Nle1	1	ambion single siRNA	-1.48	-2.26	-0.694	-2.26	inactive
Nle1	2	ambion single siRNA	-1.49	-1.49		-2.26	inactive
Nle1	3	ambion single siRNA	-3.04	-2.32	-3.77	-2.26	active
Nle1	4	qiagen single siRNA	1.5	1.54	1.46	-2.79	inactive
Nle1	5	qiagen single siRNA	-3.66	-2.67	-4.65	-2.79	active
Nle1	6	qiagen single siRNA	-3.72	-2.9	-4.54	-2.79	active
Ear2	1	qiagen single siRNA	3.87	4.74	3	-0.995	active
Ear2	2	qiagen single siRNA	-0.995	-2.12	0.135	-0.995	inactive
Ear2	3	qiagen single siRNA	-5.17	-5.49	-4.85	-0.995	active
Gabra5	1	ambion single siRNA	1.28	1.67	0.899	0.469	inactive
Gabra5	2	ambion single siRNA	0.576	1.11	0.0387	0.469	inactive
Gabra5	3	ambion single siRNA	-0.92	-1.56	-0.28	0.469	inactive
Gabra5	4	qiagen single siRNA	2.27	1.8	2.74	0.968	active
Gabra5	5	qiagen single siRNA	0.819	-0.0401	1.68	0.968	inactive
Gabra5	6	qiagen single siRNA	-0.278	-0.813	0.258	0.968	inactive
Acox2	1	ambion single siRNA	0.826	0.781	0.871	-0.95	inactive
Acox2	2	ambion single siRNA	-0.95	-0.422	-1.48	-0.95	inactive
Acox2	3	ambion single siRNA	-5.05	-6.32	-3.78	-0.95	active
Acox2	4	qiagen single siRNA	0.143	-0.308	0.594	2.09	inactive
Acox2	5	qiagen single siRNA	3.1	2.09	4.11	2.09	active
Acox2	6	qiagen single siRNA	2.51	2.09	2.93	2.09	active
Cfb	1	ambion single siRNA	0.926	2.38	-0.525	-0.558	inactive
Cfb	2	ambion single siRNA	-0.194	0.203	-0.591	-0.558	inactive
Cfb	3	ambion single siRNA	-3.54	-3.41	-3.67	-0.558	active
Cfb	4	qiagen single siRNA	-0.114	-1.25	1.02	-0.759	inactive
Cfb	5	qiagen single siRNA	-0.23	-0.269	-0.191	-0.759	inactive
Cfb	6	qiagen single siRNA	-2.38	-2.47	-2.3	-0.759	active
Palm	1	ambion single siRNA	-3.87	-3.93	-3.81	-1.54	active
Palm	2	ambion single siRNA	0.24	0.686	-0.206	-1.54	inactive
Palm	3	ambion single siRNA	-1.54	-1.54		-1.54	inactive
Palm	4	qiagen single siRNA	1.03	1.2	0.857	0.0153	inactive
Palm	5	qiagen single siRNA	0.0153	0.473	-0.443	0.0153	inactive
Palm	6	qiagen single siRNA	-1.95	-2.45	-1.44	0.0153	inactive
Rag1	1	ambion single siRNA	1.99	2.51	1.48	1.46	inactive
Rag1	2	ambion single siRNA	1.78	2.13	1.43	1.46	inactive
Rag1	3	ambion single siRNA	-1.61	-0.353	-2.87	1.46	inactive
Rag1	4	qiagen single siRNA	2.31	1.73	2.89	1.33	active
Rag1	5	qiagen single siRNA	2.1	0.119	4.08	1.33	active
Rag1	6	qiagen single siRNA	0.761	0.585	0.938	1.33	inactive
Rpsa	1	ambion single siRNA	-0.396	-0.885	0.0935	-0.707	inactive
Rpsa	2	ambion single siRNA	0.739	2.01	-0.53	-0.707	inactive
Rpsa	3	ambion single siRNA	-1.54	-2.14	-0.933	-0.707	inactive
Rpsa	4	qiagen single siRNA	2	2		-0.248	active
Rpsa	5	qiagen single siRNA	-0.248	-1.38	0.884	-0.248	inactive
Rpsa	6	qiagen single siRNA	-3.45	-3.45		-0.248	active
Fbxl22	1	ambion single siRNA	-2.91	-3.69	-2.13	-2.82	active
Fbxl22	2	ambion single siRNA	-4.52	-5.54	-3.5	-2.82	active
Fbxl22	3	ambion single siRNA	0.854	0.633	1.07	-2.82	inactive
Fbxl22	4	qiagen single siRNA	-2.03	0.26	-4.32	-0.0769	active
Fbxl22	5	qiagen single siRNA	0.114	-0.737	0.965	-0.0769	inactive
Fbxl22	6	qiagen single siRNA	0.473	-0.414	1.36	-0.0769	inactive

Single entries from the list.
Nle1 #5, siRNA vendor or control pool qiagen single siRNA, p65 translocation z-score, replicate 1 = -2.67
Rpsa #3, siRNA vendor or control pool ambion single siRNA, gene median z-score, per vendor → -0.707
Gabra5 #1, siRNA vendor or control pool ambion single siRNA, p65 translocation z-score, replicate 2 → 0.899
For “Call”, Nle1 #6, siRNA vendor or control pool qiagen single siRNA reads active
Under “Call”, Palm #2, siRNA vendor or control pool ambion single siRNA is entered as inactive
Rag1 #1, siRNA vendor or control pool ambion single siRNA, p65 translocation z-score, replicate 1 → 2.51
